Reference: publication PMC11625814
These are yes or no findings as the source states them, for the method shown. Binding seen in cells or lysates may run through a third protein. Some entries that bind do so weakly or less than the wild type. For part of these data: Tags and fused reporters may be left off the sequences shown.

The chains behind the UniProt entries cited, without tags or fusion partners.
UniProt Q2MJT0: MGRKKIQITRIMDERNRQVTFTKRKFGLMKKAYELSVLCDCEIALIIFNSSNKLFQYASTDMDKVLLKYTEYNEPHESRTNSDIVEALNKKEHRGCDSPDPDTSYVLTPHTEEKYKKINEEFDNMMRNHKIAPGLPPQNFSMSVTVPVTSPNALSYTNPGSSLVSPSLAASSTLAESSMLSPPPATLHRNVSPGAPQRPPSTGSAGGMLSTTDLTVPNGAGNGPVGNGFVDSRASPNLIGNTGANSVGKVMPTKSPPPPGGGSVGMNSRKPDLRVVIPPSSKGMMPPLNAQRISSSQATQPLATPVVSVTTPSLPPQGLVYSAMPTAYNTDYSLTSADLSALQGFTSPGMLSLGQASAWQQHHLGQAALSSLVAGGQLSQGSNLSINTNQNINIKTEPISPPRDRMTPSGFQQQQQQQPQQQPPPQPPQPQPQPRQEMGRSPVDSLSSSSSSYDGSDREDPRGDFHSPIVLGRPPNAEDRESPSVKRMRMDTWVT

T1: GFP-(aa3-196), GFP-tagged peptide corresponding to amino acids 3-196 of mAKAPα (UniProt Q9WVC7)
T1 sequence: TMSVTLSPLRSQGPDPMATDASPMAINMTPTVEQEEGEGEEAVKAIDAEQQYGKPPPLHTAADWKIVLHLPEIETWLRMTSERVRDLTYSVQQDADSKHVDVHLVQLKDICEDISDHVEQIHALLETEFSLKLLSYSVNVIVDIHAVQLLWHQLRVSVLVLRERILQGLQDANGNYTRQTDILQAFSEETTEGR


Tests used:
[1] = target: mAKAPα (AKAP6), A-kinase anchoring protein (rat (endogenous in primary hippocampal neurons)) (UniProt Q9WVC7); test: co-IP; 200 ug lysate protein of primary rat hippocampal neurons, anti-mAKAPα antibody overnight at 4°C, Protein A/G PLUS-Agarose, washed three times with PBS, immunoblot; steady state or 20 min 30 mM KCl; also with 5 uM cyclosporine A, mAKAPα shRNA lentivirus, AAV2-GFP-CBD or AAV2-GFP
[2] = target: mAKAPα (AKAP6), A-kinase anchoring protein (rat (endogenous in primary hippocampal neurons)) (UniProt Q9WVC7); test: as above; remark: listed apart in the source
[3] = target: mAKAPα (AKAP6), A-kinase anchoring protein (rat (endogenous in primary hippocampal neurons)) (UniProt Q9WVC7); test: co-IP; as a1 (anti-mAKAPα immunoprecipitate from primary rat hippocampal neurons, blot for NFATc4), with 1 mM EDTA to chelate Ca2+
[4] = target: T1, GFP-(aa3-196), GFP-tagged peptide corresponding to amino acids 3-196 of mAKAPα; test: co-IP; COS-7 cells co-transfected with GFP-(aa3-196) and Flag-NFATc4, two days later immunoprecipitated with anti-GFP antibody and immunoblotted with anti-Flag antibody

| Molecule | binding [1] | binding [2] | other results |
| --- | --- | --- | --- |
| MEF2A (myocyte enhancer factor-2A) (from UniProt Q2MJT0 1-495) | binds |  |  |
| Flag-NFATc4 (protein, UniProt Q14934 1-902) MGAASCEDEELEFKLVFGEEKEAPPLGAGGLGEELDSEDAPPCCRLALGEPPPYGAAPIGIPRPPPPRPGMHSPPPRPAPSPGTWESQPARSVRLGGPGGGAGGAGGGRVLECPSIRITSISPTPEPPAALEDNPDAWGDGSPRDYPPPEGFGGYREAGGQGGGAFFSPSPGSSSLSSWSFFSDASDEAALYAACDEVESELNEAASRFGLGSPLPSPRASPRPWTPEDPWSLYGPSPGGRGPEDSWLLLSAPGPTPASPRPASPCGKRRYSSSGTPSSASPALSRRGSLGEEGSEPPPPPPLPLARDPGSPGPFDYVGAPPAESIPQKTRRTSSEQAVALPRSEEPASCNGKLPLGAEESVAPPGGSRKEVAGMDYLAVPSPLAWSKARIGGHSPIFRTSALPPLDWPLPSQYEQLELRIEVQPRAHHRAHYETEGSRGAVKAAPGGHPVVKLLGYSEKPLTLQMFIGTADERNLRPHAFYQVHRITGKMVATASYEAVVSGTKVLEMTLLPENNMAANIDCAGILKLRNSDIELRKGETDIGRKNTRVRLVFRVHVPQGGGKVVSVQAASVPIECSQRSAQELPQVEAYSPSACSVRGGEELVLTGSNFLPDSKVVFIERGPDGKLQWEEEATVNRLQSNEVTLTLTVPEYSNKRVSRPVQVYFYVSNGRRKRSPTQSFRFLPVICKEEPLPDSSLRGFPSASATPFGTDMDFSPPRPPYPSYPHEDPACETPYLSEGFGYGMPPLYPQTGPPPSYRPGLRMFPETRGTTGCAQPPAVSFLPRPFPSDPYGGRGSSFSLGLPFSPPAPFRPPPLPASPPLEGPFPSQSDVHPLPAEGYNKVGPGYGPGEGAPEQEKSRGGYSSGFRDSVPIQGITLEEVSEIIGRDLSGFPAPPGEEPPA |  |  | binding [4]: binds |

Further lines, with some results ahead:

| binding [1] | binding [2] | Molecule | other results |
| --- | --- | --- | --- |
| binds |  | calcineurin catalytic subunit Aα (CaNAα) (from UniProt P63329 1-521) (enzyme) |  |
|  | binds | NFATc4 (nuclear factor of activated T-cells c4) (protein, UniProt D3Z9H7 1-901) MGAASCEDEELEFKLVFGEEKEAPPLGPGGPGEELDSEDAPPCCRLALGEPLPYGAAPIGIPRPPPPRPGMHSPPPRPAPSPGTWESQPPRSVRLGGPGGTAGGTGGGRVLECPSIRITSISPTPDPPTSLEDAPETWGDGSPRDYPPPEGFGGYREAGGQGGGAFFSPSPGSSSLSSWSFFSDASDEAALYAACDEVESELNEAASRFGLSSPLPSPRASPRPWTPEDPWSLYGPSSGGRAPEDSWLLLSAPGPIPASPRPASPCGKRRYSSSGTPSSASPALSRRGSLGEEGPEPPPPPPLPLVRDPSSSGPFDYVGAPPTESVPQKTRRTSSEQAVALPRSEEPASCNGKLPSGTEDSVAAPGALRKEMAGMDYLAVPSPLAWSKARIGGHSPIFRTSALPPLDWPLPSQYEQLELRIEVQPRAHHRAHYETEGSRGAVKAAPGGHPVVKLLGYNEKPLTLQMFIGTADERSLRPHAFYQVHRITGKMVATASYEAVVSGTKVLEMTLLPENNMAANIDCAGILKLRNSDIELRKGETDIGRKNTRVRLVFRVHVPQGGGKVVSVQAASVPIECSQRSAQELPQVEAYSPSACSVRGGEELVLTGSNFLPDSKVVFIERGPDGKLQWEEEAAVNRLQSSEVTLTLTIPEYSNKRVSRPVQVYFYVSNGRRKRSPTQSFKFLPVIFKEEPLPDSSLRGFPSTSGPPFGPDMDFSPPRPPYPSYPHEDPAYETPYLSEGFGYSTPALYPQTGPPPSYRSGLRMFPETGGTTGCARLPSVSFLPRPFPGDQYGGQGSSFPLGLPFSPPAPFRPPLPSSPPLEDPFNPQSAVHPLPAEGYNEVGPGYTPGEGASEQEKSRGGYGSGFRDNVPIQGITLEEVSEIIGRDLSGFPARPGEEPPA | binding [3]: no binding (condition: with 1 mM EDTA) |
|  | binds | phosphorylated NFATc4 (S289) (protein, UniProt D3Z9H7 1-901, phosphoserine at 289) MGAASCEDEELEFKLVFGEEKEAPPLGPGGPGEELDSEDAPPCCRLALGEPLPYGAAPIGIPRPPPPRPGMHSPPPRPAPSPGTWESQPPRSVRLGGPGGTAGGTGGGRVLECPSIRITSISPTPDPPTSLEDAPETWGDGSPRDYPPPEGFGGYREAGGQGGGAFFSPSPGSSSLSSWSFFSDASDEAALYAACDEVESELNEAASRFGLSSPLPSPRASPRPWTPEDPWSLYGPSSGGRAPEDSWLLLSAPGPIPASPRPASPCGKRRYSSSGTPSSASPALSRRGSLGEEGPEPPPPPPLPLVRDPSSSGPFDYVGAPPTESVPQKTRRTSSEQAVALPRSEEPASCNGKLPSGTEDSVAAPGALRKEMAGMDYLAVPSPLAWSKARIGGHSPIFRTSALPPLDWPLPSQYEQLELRIEVQPRAHHRAHYETEGSRGAVKAAPGGHPVVKLLGYNEKPLTLQMFIGTADERSLRPHAFYQVHRITGKMVATASYEAVVSGTKVLEMTLLPENNMAANIDCAGILKLRNSDIELRKGETDIGRKNTRVRLVFRVHVPQGGGKVVSVQAASVPIECSQRSAQELPQVEAYSPSACSVRGGEELVLTGSNFLPDSKVVFIERGPDGKLQWEEEAAVNRLQSSEVTLTLTIPEYSNKRVSRPVQVYFYVSNGRRKRSPTQSFKFLPVIFKEEPLPDSSLRGFPSTSGPPFGPDMDFSPPRPPYPSYPHEDPAYETPYLSEGFGYSTPALYPQTGPPPSYRSGLRMFPETGGTTGCARLPSVSFLPRPFPGDQYGGQGSSFPLGLPFSPPAPFRPPLPSSPPLEDPFNPQSAVHPLPAEGYNEVGPGYTPGEGASEQEKSRGGYGSGFRDNVPIQGITLEEVSEIIGRDLSGFPARPGEEPPA |  |
